This is an account of results in patent publication US20060094059A1, “Methods for identifying new drug leads and new therapeutic uses for known drugs” (Odyssey Thera, Inc., priority 2004, published 2006).

The test system of one experiment is CDC42:PAK4 complexes. As to the kind of experiment: Protein-fragment complementation assay CDC42:PAK4. The experiment is classed as cell-based, human. To be noted: hit in CDC42/PAK4 assay; drugs screened at 10 micromolar. From the text: (§1) To construct dynamic assays for protein-protein complexes, we used a protein-fragment complementation assay strategy (PCAs) in intact human cells. (A variety of other suitable assays, and reporter options, are described in detail below.) The principle of PCA is that complementary polypeptide fragments (F[1] and F[2]) of a reporter protein or enzyme will fold into an active form only if fused to two proteins which interact and bring the complementary fragments of the reporter protein into proximity. Reconstitution of the fragments of the reporter protein generates a fluorescent signal that can be quantified in intact cells, and the amount of the signal is proportional to the amount of the protein-protein complex used in constructing the assay. Given a suitable reporter type, the subcellular location of the complex can also be measured.
(§2) Reporter fragments for PCA were generated by oligonucleotide synthesis (Blue Heron Biotechnology, Bothell, Wash.), starting with the sequence of yellow fluorescent protein (YFP). First, oligonucleotides coding for polypeptide fragments YFP[1]and YFP[2] […] Next, PCR mutagenesis was used to generate the mutant fragments IFP[1] and IFP[2]. The IFP[1] fragment corresponds to YFP[1]-(F46L, F64L, M153T) and the IFP[2] fragment corresponds to YFP[2]-(V163A, S175G). […]

The subject of experiment [1] is pancreatic carcinoma (MIA PaCa-2) cells. Description: MTT proliferation assay, pancreatic. The note with it: Homo sapiens, Tumor Cell Pancreatic (MIA PaCa-2), 120 hours, read-out: Anti-proliferative IC-50. The experiment is classed as cell-based. The method, then:
(§3) Cells were maintained in various media as follows: A549, LoVo and PC-3 (Ham's F12K medium with 2 mM L-glutamine and 1.5 g/L sodium bicarbonate), MIA PaCa-2 (Dulbecco's modified Eagle's medium with 4 mM L-glutamine and 4.5 g/L glucose), U87-MG (MEM+Earle's BSS). Medium for each cell line was supplemented with 10% FBS and […] Penecillin/Streptomycin. All cells were grown in incubators set at 37° C., 5% CO2. Thiazolyl Blue Tetrazolium Bromide (MTT) based proliferation assays were performed to assess the anti-proliferative activities of the compounds on these cells. Cells were seeded in 96 well plates at a density of 750 cells/well 24 hours prior to compound treatment. The cells were incubated with varying concentrations of compounds for 120 hours. […] Drug treatment was performed in 5 replicate wells. Background absorbance was established by wells containing medium but no cells. Vehicle (DMSO) only was used as control. MTT (Sigma-Aldrich, St. Louis, Mo.) was added to each well at a final concentration of 0.5 mg/ml. Following a 2 hour incubation at 37° C., medium in the wells was replaced with 0.15 ml DMSO. The plates were agitated for 15 min using a microtiter plate shaker.
In general terms: Tetrazolium assays rely on reduction of a dye to a coloured formazan, in cell work by metabolically active cells.

Experiment [2] relates to glioblastoma (U-87 MG) cells. As to the kind of experiment: MTT proliferation assay, glioblastoma. In kind it is cell-based. To be noted: Homo sapiens, Tumor Cell Glioblastoma (U-87 MG), 120 hours, read-out: Anti-proliferative IC-50. As for the experimental part:
as §3

Another experiment has as its system PAK4:Cofilin. As to the kind of experiment: Protein-fragment complementation assay PAK4:Cofilin. The experiment is classed as cell-based, human. To be noted: hit in PAK4/CFL assay; drugs screened at 10 micromolar.
From the text: as §1, §2

With `C(=C\c1ccccc1)/CN1CCN(C(c2ccccc2)c2ccccc2)CC1` [Cinnarizine], the Assay activity result with CDC42:PAK4 complexes is reported as “CDC42/PAK4,”; in the experiment with PAK4:Cofilin it was “PAK4/CFL”. In addition, the values for the IC50 in experiment [1] and in experiment [2] were 11.1 µM and 13.5 µM, respectively.
